Results are given in words; binding and its absence hold for the method and conditions named. Some results given as binding are weak or reduced against the parent protein; the word gives no strength.
Molecular target: 6xHis-tagged RBD_(ROCK1) (UniProt Q13464)
Test: BLI; BLItz instrument; His-tagged protein loaded on Ni-NTA biosensor for 90 s; association and dissociation 120 s; three concentrations; both purified

By UniProt entry, the sequences of proteins in these tests, tags left out. Where a name states a change or a piece, a line headed by the entry shows the natural chain unless it says otherwise. Residues count along the entry.
UniProt Q13464, residues 934-1015: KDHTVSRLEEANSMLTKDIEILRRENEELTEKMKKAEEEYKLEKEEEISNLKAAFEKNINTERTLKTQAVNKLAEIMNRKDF
UniProt P61586: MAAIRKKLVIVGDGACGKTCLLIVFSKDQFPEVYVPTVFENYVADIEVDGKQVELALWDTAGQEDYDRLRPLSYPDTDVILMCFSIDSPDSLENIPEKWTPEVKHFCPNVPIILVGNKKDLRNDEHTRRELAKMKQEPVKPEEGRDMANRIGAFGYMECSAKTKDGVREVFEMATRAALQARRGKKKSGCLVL

Substance: GST-tagged RhoA (Q63L) (from UniProt P61586 1-193)
- binding: binds

Source: paper PMC12579213
